In assay [1] the target is T1, CCL2 (human, UniProt P13500 24-99).
T1 construct: CCL2, human, recombinant; source: bought: PeproTech
The experiment in a line: ELISA; phage ELISA: chemokine coated on maxisorp plates (0.1-1.0 µg/ml in 0.1 M NaHCO3, pH 8.6), BSA block, individual phages 10^7-10^9 PFU per well for 45 min at RT, detected with HRP/anti-M13 antibody, OD450; only the target purified. In general terms: An ELISA detects its analyte on a solid surface through an enzyme-linked reagent.

The chains behind the UniProt entries cited, without tags or fusion partners. Where a name states a change or a piece, a line headed by the entry shows the natural chain unless it says otherwise. Residues count along the entry.
UniProt P13500, residues 24-99: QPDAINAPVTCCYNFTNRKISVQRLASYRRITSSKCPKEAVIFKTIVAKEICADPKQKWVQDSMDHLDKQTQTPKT
UniProt P13501, residues 24-91: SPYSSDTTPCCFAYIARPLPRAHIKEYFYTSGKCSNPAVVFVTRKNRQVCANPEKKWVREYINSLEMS
UniProt P10147, residues 24-92: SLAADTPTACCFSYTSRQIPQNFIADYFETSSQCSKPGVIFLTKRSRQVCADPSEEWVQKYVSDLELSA
UniProt Q99731, residues 22-98: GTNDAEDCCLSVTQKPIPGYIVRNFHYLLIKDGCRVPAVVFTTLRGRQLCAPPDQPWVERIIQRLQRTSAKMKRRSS
UniProt P13236, residues 24-92: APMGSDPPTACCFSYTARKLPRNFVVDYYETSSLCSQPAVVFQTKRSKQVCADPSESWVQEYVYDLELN
UniProt P69168: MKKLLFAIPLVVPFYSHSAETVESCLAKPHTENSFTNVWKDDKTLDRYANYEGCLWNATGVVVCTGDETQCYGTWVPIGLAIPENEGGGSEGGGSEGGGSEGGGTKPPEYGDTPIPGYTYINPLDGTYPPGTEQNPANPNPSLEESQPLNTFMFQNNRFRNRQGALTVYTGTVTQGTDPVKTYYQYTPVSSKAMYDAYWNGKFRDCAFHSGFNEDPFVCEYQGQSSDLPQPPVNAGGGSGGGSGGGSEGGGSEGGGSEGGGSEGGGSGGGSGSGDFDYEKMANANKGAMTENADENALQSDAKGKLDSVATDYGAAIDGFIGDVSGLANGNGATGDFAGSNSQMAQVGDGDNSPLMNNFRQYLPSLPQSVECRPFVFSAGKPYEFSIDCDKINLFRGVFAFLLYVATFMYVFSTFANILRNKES

Another assay addresses CCL5 (human) (UniProt P13501). The experiment in a line: ELISA; chemokines coated at 150 ng/well in 0.1 M carbonate pH 9.5, 4% BSA block, BKT130Fc at 0, 1, 10 and 50 µg/ml for 2 h at RT, detected with goat anti-human IgG HRP, O.D. 450 nm.
Another assay addresses T2, CXCL11 (human) (UniProt O14625).
T2 sequence: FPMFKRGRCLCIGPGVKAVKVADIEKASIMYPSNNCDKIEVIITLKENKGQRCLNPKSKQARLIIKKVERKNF
The description is as above.

A further assay addresses CCL3 (human) (UniProt P10147). Described as above.
A further assay deals with T3, CXCL13 (human) (UniProt O43927).
T3 sequence: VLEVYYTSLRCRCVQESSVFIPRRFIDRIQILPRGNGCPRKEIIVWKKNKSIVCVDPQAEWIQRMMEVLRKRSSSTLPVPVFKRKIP
Described as above.

The next assay addresses T4, CXCL9 (human) (UniProt Q07325).
T4 sequence: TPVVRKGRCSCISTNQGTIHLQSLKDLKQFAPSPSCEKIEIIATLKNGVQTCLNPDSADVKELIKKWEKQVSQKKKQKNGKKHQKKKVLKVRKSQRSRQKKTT
Described as above.

The target in assay [2] is T1, CCL2. The assay is described as above.
For another assay, the target named is CCL19 (human) (UniProt Q99731). Described as above.
The next assay concerns the target CCL4 (human) (UniProt P13236). The assay is described as above.

No constants are given. Whether binding was seen depends on the method and setting. Some binding calls cover weakened binding; strength is not graded here.

“phage carrying the BKT130 peptide (from UniProt P69168 19-424)”: in the assay with CCL2 [1], the binding entry is given as “binds”.

Consider SIPSHSIHSAKAGGGSKG (Fc fusion) [BKT130Fc peptibody], for which the binding result in the assay with CCL5 (human) is “binds”; with CXCL11 (human), “binds”; with CCL3 (human), “no binding (tested: 50 µg/ml)”; with CXCL13 (human), “no binding (tested: 50 µg/ml)”; with CXCL9 (human), “binds”; with CCL2 [2], “binds weakly”. The binding result with CCL19 (human) and in the assay with CCL4 (human) was “no binding (tested: 50 µg/ml)” in each case.
